Data taken from patent US20240191276 (published 2024).

Assay: general procedure: Fmoc solid-phase peptide synthesis; Rink Amide resin (GL-biochem, 0.65 mmol/g); DIC/Oxyma
Details: conjugation step, HPLC peak area at 260 nm

H(Aib)EGTFTSDVSSYLEGQAAKEFIAWLVKGRGLPETGLE (SEQ ID NO: 16)
conjugation yield: 23%
